Laboratory results from article PMC8208478.
The exact form of at least one protein or probe is not confirmed. Where a protein sequence is shown, tags need not be part of it.

Target: T1, Gp44(1-55) C-terminal His (Gp44NT-His) (Bacillus phage SPO1) (UniProt Q08402)
T1 sequence (looked up): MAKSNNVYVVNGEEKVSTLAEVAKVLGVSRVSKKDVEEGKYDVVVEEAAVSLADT
Test: NMR titration (1H-15N HSQC)
Conditions: pH 6.5, 298 K, no preference between the two probes; NMR titration at pH 6.5, 298 K; up to 5-fold dsDNA added to 15N Gp44; protein storage buffer 50 mM NaH2PO4 pH 6.8, 250 mM NaCl, 1 mM DTT; recombinant protein; residues 1-55; protein details: C-terminal His-tag

“AATTGCAGTAGGCATGACAAAATGGACTCA (double strand) [Pstrong (BBa_K780003)]”: binds.
“AGGGAATACAAGCTACTTGTTCTTTTTGCA (double strand) [T7A1 (BBa_I712074)]”: binds.
